Data: article PMC11441124
Results are given in words; binding and its absence hold for the method and conditions named. In cells and extracts the contact can be indirect. Some binding calls cover weakened binding; strength is not graded here. Where a sequence is shown, tags or fusion partners need not be part of it.

Target: T1, ectopically expressed HSF1 with different tags (HA-HSF1 and Flag-HSF1), Q00613
T1 chain: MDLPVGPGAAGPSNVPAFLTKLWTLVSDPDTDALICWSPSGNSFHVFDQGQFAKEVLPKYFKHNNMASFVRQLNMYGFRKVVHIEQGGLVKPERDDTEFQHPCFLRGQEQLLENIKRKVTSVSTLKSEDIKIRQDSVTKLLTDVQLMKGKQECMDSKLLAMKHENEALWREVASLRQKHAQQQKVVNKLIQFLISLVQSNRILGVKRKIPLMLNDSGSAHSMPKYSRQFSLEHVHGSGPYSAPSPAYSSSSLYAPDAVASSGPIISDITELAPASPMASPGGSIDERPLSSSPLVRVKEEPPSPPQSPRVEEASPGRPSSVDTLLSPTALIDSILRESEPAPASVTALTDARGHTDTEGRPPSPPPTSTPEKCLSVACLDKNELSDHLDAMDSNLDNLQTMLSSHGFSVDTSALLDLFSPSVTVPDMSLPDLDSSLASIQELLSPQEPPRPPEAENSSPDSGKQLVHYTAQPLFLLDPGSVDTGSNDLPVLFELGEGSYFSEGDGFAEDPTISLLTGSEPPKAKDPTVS
Experiment: co-IP; HA-HSF1 and Flag-HSF1 co-expressed in PANC-1 and PaTu8988 cells for 48 h; with BAP1 knock-out (interaction increased) or BAP1 overexpression (interaction attenuated)
Details: remark: other sources report otherwise

binding: binds
B1: ectopically expressed HSF1 with different tags (HA-HSF1 and Flag-HSF1), Q00613 1-529 (protein)
chain: MDLPVGPGAAGPSNVPAFLTKLWTLVSDPDTDALICWSPSGNSFHVFDQGQFAKEVLPKYFKHNNMASFVRQLNMYGFRKVVHIEQGGLVKPERDDTEFQHPCFLRGQEQLLENIKRKVTSVSTLKSEDIKIRQDSVTKLLTDVQLMKGKQECMDSKLLAMKHENEALWREVASLRQKHAQQQKVVNKLIQFLISLVQSNRILGVKRKIPLMLNDSGSAHSMPKYSRQFSLEHVHGSGPYSAPSPAYSSSSLYAPDAVASSGPIISDITELAPASPMASPGGSIDERPLSSSPLVRVKEEPPSPPQSPRVEEASPGRPSSVDTLLSPTALIDSILRESEPAPASVTALTDARGHTDTEGRPPSPPPTSTPEKCLSVACLDKNELSDHLDAMDSNLDNLQTMLSSHGFSVDTSALLDLFSPSVTVPDMSLPDLDSSLASIQELLSPQEPPRPPEAENSSPDSGKQLVHYTAQPLFLLDPGSVDTGSNDLPVLFELGEGSYFSEGDGFAEDPTISLLTGSEPPKAKDPTVS
